According to paper PMC8179002 (Chemical Science, 2020):
HELM strings list residues between dots; [ac] is acetyl, [am] amide, other brackets name non-standard units.

Test: general procedure: solution-phase peptide synthesis; EDCI, DMAP
Conditions: late stage modification step

Substance: PEPTIDE1{C.G.C.E}$PEPTIDE1,PEPTIDE1,1:R3-3:R3$$$V2.0
- step yield: 92%
